# From PubChem BioAssay AID504467 (National Center for Advancing Translational Sciences (NCATS), 2011)
# The whole screen tested about 330,000 compounds, of which about 7,700 (2.3%) were called active. The shares of active, inactive and inconclusive entries below differ from those in the screen. Calls come from the whole dose curve; as a rule, active = well fitted inhibition curve with a large enough effect; inconclusive = small, poorly fitted or top-dose-only effect, or effect the other way; inactive = flat fitted curve, though single readings scatter. Potencies beside an inconclusive call are fits to weak or partial responses and may not hold up.
# Assay: qHTS screen for small molecules that inhibit ELG1-dependent DNA repair in human embryonic kidney (HEK293T) cells expressing luciferase-tagged ELG1; note: nearly all actives have a fitted effect of over 55% in size
# Details: HEK293T ELG1-luciferase reporter, luminescence, 16 h, DNA damage induced by 5-fluorouridine; series mostly up to 46.1 µM
# Summary of the method: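 5-Fluorouridine DNA damage + compound/DMSO, 2,000 cells/well, 16 h, 37 °C/5% CO2. ONE-Glo, 30 min RT, luminescence. Readout = decrease in reporter signal.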
# Potency is the fitted concentration of half-maximal effect.
row,Compound,Potency
1,N#Cc1ccccc1CSc1nc2ccc(NC(=O)c3ccccc3C(=O)O)cc2s1,"inconclusive: 20.6 µM [activator, single point]"
2,COc1cc([C@@H]2C[C@H]3CN(c4ccccc4)C(=O)[C@]34CCCN24)cc(OC)c1OC,"inconclusive: 20.6 µM [inhibitor, single point]"
3,COc1ccc(S(=O)(=O)N2Cc3ccccc3CC2C(=O)Nc2nccs2)cc1OC (configuration not stated),"inconclusive: 13 µM [activator, partial curve]"
4,CC(C)C(=O)N1CCC2(CC1)Oc1ccc(Cl)cc1C(=O)C21CC(c2cccnc2)=NO1 (configuration not stated),"inconclusive: 6.51 µM [inhibitor, partial curve]"
5,CC(O)CCC(=O)NNC(=S)Nc1ccccc1 (configuration not stated),inactive
6,O=C(Nc1ccc(F)cc1)c1sc2cc(C(F)(F)F)cnc2c1-c1cccs1,inactive
7,Nc1c(C(=O)N/N=C/c2ccccc2Cl)oc2nc(-c3ccccc3)cc(-c3ccco3)c12,"inconclusive: 25.9 µM [inhibitor, partial curve]"
8,CN(C)c1ccc(C(O)P(=O)(OCc2ccccc2)c2ccc(N(C)C)cc2)cc1 (configuration not stated),inactive
9,O=C(c1ccc(Cl)c([N+](=O)[O-])c1)N1CCN(c2ccccc2)CC1,inactive
10,COCCCn1c(SCC(=O)Nc2nc3ccccc3s2)nnc1-c1ccoc1C,"inconclusive: 25.9 µM [inhibitor, partial curve, poor fit]"
11,O=C(OCC(=O)N1CCOCC1)c1ccc2c(c1)OCCO2,"inconclusive: 29.1 µM [activator, single point]"
12,CCOc1ccc2nc(SCC(=O)c3ccccc3)sc2c1,"inconclusive: 23.1 µM [activator, partial curve]"
13,CC(C)(C)NC(=O)NC(=O)COC(=O)c1c(F)cccc1Cl,"inconclusive: 14.6 µM [activator, single point]"
14,Cc1cccc(Cn2c(N3CCN(c4ccccc4)CC3)nc3c2c(=O)n(C)c(=O)n3C)c1,inactive
15,Cc1ccc(-c2nnc(SCC(=O)Nc3nc4c(s3)CCCC4)n2C)cc1,"inconclusive: 23.1 µM [inhibitor, single point]"
16,O=C(CCCCCN1C(=O)c2cccc3cccc(c23)C1=O)N1CCOCC1,"inconclusive: 29.1 µM [inhibitor, single point]"
17,CC/C=C/C(=O)N1CC2(CC(c3cccc(NC(=O)COc4ccc(Cl)cc4)c3)=NO2)C[C@H]1C(N)=O (some centres not stated),active: 16.4 µM
18,O=C(/C=C/c1ccccc1)NC(=S)Nc1ccc(N2CCOCC2)cc1,inactive
19,C[C@@H]1CN([C@@H](C)CO)C(=O)c2cccc(NS(=O)(=O)c3ccc(F)cc3)c2O[C@H]1CN(C)C(=O)NC1CCCCC1,"inconclusive: 23.1 µM [activator, partial curve, poor fit]"
20,Nc1ccccc1-c1nc2ccccc2c(=O)o1,"inconclusive: 29.1 µM [activator, single point]"
21,CCC(CC)NC(=O)c1cc2c(C)nn(Cc3ccccc3Cl)c2s1,"inconclusive: 4.11 µM [inhibitor, single point]"
22,Cc1cccn2c(=O)c3cc(S(=O)(=O)c4ccc(F)cc4)c(=N)n(Cc4ccco4)c3nc12,"inconclusive: 18.3 µM [inhibitor, partial curve]"
23,O=[N+]([O-])c1ccc(-c2nc3ccc([N+](=O)[O-])cc3[nH]2)cc1,"inconclusive: 29.1 µM [inhibitor, single point]"

# Five of these compounds in another layout:
row	Compound	Potency
16	O=C(CCCCCN1C(=O)c2cccc3cccc(c23)C1=O)N1CCOCC1	inconclusive: 29.1 µM [inhibitor, single point]
17	CC/C=C/C(=O)N1CC2(CC(c3cccc(NC(=O)COc4ccc(Cl)cc4)c3)=NO2)C[C@H]1C(N)=O (some centres not stated)	active: 16.4 µM
18	O=C(/C=C/c1ccccc1)NC(=S)Nc1ccc(N2CCOCC2)cc1	inactive
19	C[C@@H]1CN([C@@H](C)CO)C(=O)c2cccc(NS(=O)(=O)c3ccc(F)cc3)c2O[C@H]1CN(C)C(=O)NC1CCCCC1	inconclusive: 23.1 µM [activator, partial curve, poor fit]
20	Nc1ccccc1-c1nc2ccccc2c(=O)o1	inconclusive: 29.1 µM [activator, single point]

# (next part)

row,Compound,Potency
1,N#C/C(=C\c1cn[nH]c1-c1ccc(Cl)cc1)C(=O)NC1CC1,"inconclusive: 25.9 µM [inhibitor, partial curve, poor fit]"
2,O=C(CSc1nnc(-c2ccc(C(F)(F)F)cn2)s1)c1ccc(Cl)cc1,inactive
3,O=C(Nc1nc2cc3c(cc2s1)OCCO3)c1ccc(N2C(=O)CCC2=O)cc1,"inconclusive: 6.51 µM [activator, single point]"
4,CC1(C)CC(=O)C(C=Nc2ccc3c(c2)OCO3)=C(O)C1,"inconclusive: 23.1 µM [activator, single point]"
5,CC1CSc2nc3sc4c(c3c(=O)n21)CCCC4 (configuration not stated),"inconclusive: 29.1 µM [activator, single point]"
6,CCN(CC)c1ccc(NC(=O)CN2CCN(CC(=O)Nc3ccc(F)cc3)CC2)cc1,"inconclusive: 4.61 µM [inhibitor, partial curve, poor fit]"
7,Cc1ccc2cc(-c3noc(C4CCCO4)n3)c(=O)[nH]c2c1 (configuration not stated),"inconclusive: 20.6 µM [activator, partial curve]"
8,CC1CCC2(CC1)N=C(N)Nc1nc3ccccc3n12 (configuration not stated),inactive
9,CN(CCC(=O)Nc1ccc(Cl)cc1)Cc1ccccc1,"inconclusive: 6.31 µM [inhibitor, partial curve, poor fit]"
10,COc1ccc(C(=O)Nc2cccc(N(C)S(C)(=O)=O)c2)cc1OC,"inconclusive: 16.4 µM [activator, partial curve, poor fit]"
11,CC1CCCN(C(=S)NCCc2ccccc2)C1 (configuration not stated),"inconclusive: 14.6 µM [activator, partial curve]"
12,Cc1cc(C)cc(NS(=O)(=O)c2ccc3c(c2)c(=O)n(C)c(=O)n3C)c1,"inconclusive: 20.6 µM [inhibitor, single point]"
13,O=C1NC(=O)/C(=C/c2ccc(N3CCOCC3)o2)N1,"inconclusive: 32.6 µM [activator, partial curve, poor fit]"
14,Cc1ccc(C)c(-c2csc(Nc3ncccn3)n2)c1,"inconclusive: 23.1 µM [activator, single point]"
15,CC(=O)c1cccc(NC(=O)c2ccc(NC(=O)CCS(=O)(=O)c3cccs3)cc2)c1,"inconclusive: 23.1 µM [inhibitor, partial curve]"
16,CCn1c(=S)ccc2ccc(OC)cc21,"inconclusive: 14.1 µM [activator, partial curve, poor fit]"
17,O=C(Nc1ncc2c(n1)-c1ccccc1CC2)c1cccc(Cl)c1,"inconclusive: 29.1 µM [inhibitor, single point]"
18,CN(CCc1cn[nH]c1)Cc1nc(Cc2ccccc2)no1,"inconclusive: 29.1 µM [inhibitor, single point]"
19,CCN1C(=O)/C(=C\C(=O)c2cccs2)c2cc(Br)ccc21,inactive
20,FC(F)(F)c1nc(N2CCCC2)ncc1-c1nnnn1-c1ccc(Cl)cc1,"inconclusive: 13 µM [inhibitor, partial curve, poor fit]"
21,CCN(CC)S(=O)(=O)c1ccc(C(=O)Nc2cccc(C)c2)cc1,"inconclusive: 23.1 µM [inhibitor, single point]"
22,CC(C)(C)OC(=O)NCCC(=O)N/N=C/c1cccc2cccnc12,"inconclusive: 13 µM [inhibitor, partial curve]"
23,COc1ccccc1NC(=O)CSc1nc2ccccc2c(=O)n1C,"inconclusive: 17.8 µM [inhibitor, partial curve, poor fit]"

row,Compound,Potency
1,O=C(/C=C/c1cccc(F)c1)N1CCN(c2ccccn2)CC1,"inconclusive: 20.6 µM [activator, single point]"
2,Clc1ccccc1OCCn1nnc2ccccc21,"inconclusive: 29.1 µM [activator, single point]"
3,C=CCN(CC(=O)NC1CCS(=O)(=O)C1)S(=O)(=O)c1ccccc1C(F)(F)F (configuration not stated),"inconclusive: 32.6 µM [inhibitor, partial curve, poor fit]"
4,Fc1cccc(COc2ccccc2CNc2ccccc2)c1,inactive
5,O=c1c(-c2ccc(O)cc2)coc2cc(OC3OC(CO)C(O)C(O)C3O)cc(O)c12 (configuration not stated),"inconclusive: 9.2 µM [activator, partial curve]"
6,CCCc1cc(N2CCCC(C(=O)Nc3ccc(OC)cc3OC)C2)n2ncnc2n1 (configuration not stated),"inconclusive: 20.6 µM [inhibitor, single point]"
7,N#C/C(=C/c1cccnc1)c1ccccc1,inactive
8,CC(C)(C)OC(=O)NCc1ccc(NC(=O)c2nc[nH]c2C(=O)N[C@@H](Cc2ccccc2)C(=O)OC(C)(C)C)cc1,"inconclusive: 20.6 µM [inhibitor, single point]"
9,Cc1ccc2nsnc2c1NC(=O)c1sc2ccccc2c1Cl,inactive
10,Cc1ccc(S(=O)(=O)CCC(O)c2ccc(Cl)cc2)cc1 (configuration not stated),inactive
11,CCOC(=O)N1CCN(C(=O)c2cc(-c3ccc(F)cc3)[nH]c2C)CC1,inactive
12,Cc1ccc(C)c(S(=O)(=O)N2CCCOC2CNC(=O)C(=O)NCCc2ccccc2)c1 (configuration not stated),inactive
13,Cc1csc(SCc2nnc(-c3ccccc3Br)o2)n1,"inconclusive: 9.2 µM [activator, partial curve]"
14,COc1ccccc1Nc1c2ccccc2nc2ccccc12,"inconclusive: 11.6 µM [inhibitor, partial curve]"
15,CCOC(=O)C1=C(c2ccccc2)NC(SCC)=C(C#N)C1c1cccnc1 (configuration not stated),inactive
16,Cc1ccc(CN(CC(O)COc2cccc3[nH]cc(C)c23)C(C)(C)C)cc1 (configuration not stated),inactive
17,NC(=O)[C@H](Cc1cc2ccccc2s1)NC(=O)[C@@H]1CC2(CC(c3cccc(NC(=O)[C@@H]4CCC(=O)N4)c3)=NO2)CN1C(=O)c1ccccc1 (some centres not stated),inactive
18,COc1ccc(CCN(C)C2CCCN(C(=O)Cn3cnnn3)C2)cc1OC (configuration not stated),inactive
19,CCCCn1c(=O)[nH]c(=O)c2c1nc(-c1ccc(-c3ccccc3Br)o1)n2CCOC,active: 2.59 µM
20,Cc1nn2c(N)c(-c3ccccc3)cnc2c1-c1ccccc1,"inconclusive: 14.1 µM [activator, partial curve, poor fit]"
21,COc1ccc(S(=O)(=O)n2ccc(-c3cnc(-c4ccccc4)s3)n2)cc1,"inconclusive: 2.91 µM [activator, full curve, poor fit]"
